{"source": "PubChem BioAssay AID248", "about": "(DTP/NCI, 2004)", "test_system": "L1210 leukemia ip in BDF1 mice, survival T/C", "experiment": "NCI In Vivo Anticancer Drug Screen. Data for tumor model L1210 Leukemia (intraperitoneal) in B6D2F1 (BDF1) mice", "conditions": "higher T/C = longer survival", "key": {"[1]": {"conditions": "T/C endpoint: mean survival time, dose: 256.0 mg/kg/injection, schedule: Q01DX009 (ip), vehicle: saline"}}, "note": "The list does not hold the whole screen: it covers a few groups of compounds. Not every dose and run of a compound is shown. T/C is the treated group as % of the vehicle group. Some entries give survivors of the animals treated and no T/C: the source holds a T/C of zero for them, seemingly a mark for toxic or unscored doses. Some survivor counts are full or nearly so, which does not show that the dose was tolerated: survival well below the control is almost never listed, so the zero probably covers shortened survival too. Counts of survivors are from the toxicity check (mostly the fifth day) where no day follows; animals may have died later. Schedules are NCI's codes, taken here to give the interval after Q, in days (D) or hours (H), and the number of doses after X. Some schedules carry Z or #; the key to these is not given. Some entries hold several experiments; the values are given in rising order. For survival time, the PubChem record calls one and a half times the control and up active, and a quarter to a half above the control has no call in these data; cut-offs in other NCI protocols can differ. Some T/C values are followed by the survivors on the day toxicity was checked, most often the fifth; where neither a count nor a note follows, no animal had died by that day."}
{"smiles": "NC1CCCCC1.O=P(O)(NCCCO)N(CCCl)CCCl", "values": [{"measurement": "survivor count", "setting": "T/C endpoint: mean survival time, dose: 256.0 mg/kg/injection, schedule: Q01DX005 (ip), vehicle: saline", "result": "10 of 10"}, {"measurement": "T/C", "setting": "[1]", "result": "95 % of control [9 of 10 alive]"}, {"measurement": "survivor count", "setting": "[1]", "result": "9 of 10"}, {"measurement": "T/C", "setting": "T/C endpoint: mean survival time, dose: 256.0 mg/kg/injection, schedule: Q01DX009 (oral), vehicle: saline", "result": "125 % of control [9 of 10 alive]"}, {"measurement": "T/C", "setting": "T/C endpoint: mean survival time, dose: 256.0 mg/kg/injection, schedule: Q01DX009 (sc), vehicle: saline", "result": "92 % of control"}, {"measurement": "T/C", "setting": "T/C endpoint: mean survival time, dose: 256.0 mg/kg/injection, schedule: Q04DX003 (ip), vehicle: saline", "result": "194 % of control"}, {"measurement": "T/C", "setting": "T/C endpoint: mean survival time, dose: 256.0 mg/kg/injection, schedule: Q04DX003 (iv), vehicle: saline", "result": "122 % of control"}, {"measurement": "T/C", "setting": "T/C endpoint: mean survival time, dose: 256.0 mg/kg/injection, schedule: Q08DX002 (ip), vehicle: saline", "result": "156 % of control"}, {"measurement": "T/C", "setting": "T/C endpoint: mean survival time, dose: 256.0 mg/kg/injection, schedule: Q## X002 (ip), vehicle: saline", "result": "144 % of control"}, {"measurement": "T/C", "setting": "T/C endpoint: mean survival time, dose: 256.0 mg/kg/injection, schedule: Q## X003 (ip), vehicle: saline", "result": "172 % of control"}, {"measurement": "T/C", "setting": "T/C endpoint: mean survival time, dose: 256.0 mg/kg/injection, schedule: Q## X008 (ip), vehicle: saline", "result": "125 % of control"}, {"measurement": "T/C", "setting": "T/C endpoint: mean survival time, dose: 256.0 mg/kg/injection, schedule: Q## X016 (ip), vehicle: saline", "result": "121 % of control"}, {"measurement": "T/C", "setting": "T/C endpoint: mean survival time, dose: 256.0 mg/kg/injection, schedule: Q## X024 (ip), vehicle: saline", "result": "129 % of control"}, {"measurement": "T/C", "setting": "T/C endpoint: mean survival time, dose: 266.0 mg/kg/injection, schedule: Q01DX001 (ip), vehicle: saline", "result": "137 % of control"}, {"measurement": "T/C", "setting": "T/C endpoint: mean survival time, dose: 325.0 mg/kg/injection, schedule: Q01DX Z (ip), vehicle: saline", "result": "217 % of control"}, {"measurement": "T/C", "setting": "T/C endpoint: mean survival time, dose: 400.0 mg/kg/injection, schedule: Q01DX001 (ip), vehicle: saline", "result": "245 % of control"}, {"measurement": "survivor count", "setting": "T/C endpoint: mean survival time, dose: 400.0 mg/kg/injection, schedule: Q01DX Z (ip), vehicle: saline", "result": "6 of 6"}, {"measurement": "survivor count", "setting": "T/C endpoint: mean survival time, dose: 488.0 mg/kg/injection, schedule: Q01DX Z (ip), vehicle: saline", "result": "0 of 6"}, {"measurement": "T/C", "setting": "T/C endpoint: mean survival time, dose: 500.0 mg/kg/injection, schedule: Q01DX001 (ip), vehicle: clinical formulation", "result": "109 % of control [4 of 6 alive]"}, {"measurement": "T/C", "setting": "T/C endpoint: mean survival time, dose: 500.0 mg/kg/injection, schedule: Q01DX001 (ip), vehicle: saline", "result": "146 % of control [5 of 6 alive]"}, {"measurement": "T/C", "setting": "T/C endpoint: mean survival time, dose: 500.0 mg/kg/injection, schedule: Q01DX009 (oral), vehicle: saline", "result": "108 % of control"}, {"measurement": "T/C", "setting": "T/C endpoint: mean survival time, dose: 512.0 mg/kg/injection, schedule: Q01DX001 (ip), vehicle: saline", "result": "381 [9 of 10 alive] and 388 % of control [8 of 10 alive]"}, {"measurement": "survivor count", "setting": "T/C endpoint: mean survival time, dose: 512.0 mg/kg/injection, schedule: Q01DX001 (iv), vehicle: saline", "result": "6 of 10"}, {"measurement": "T/C", "setting": "T/C endpoint: mean survival time, dose: 512.0 mg/kg/injection, schedule: Q01DX001 (oral), vehicle: saline", "result": "125 % of control"}, {"measurement": "T/C", "setting": "T/C endpoint: mean survival time, dose: 512.0 mg/kg/injection, schedule: Q01DX001 (sc), vehicle: saline", "result": "111 % of control [9 of 10 alive]"}, {"measurement": "T/C", "setting": "T/C endpoint: mean survival time, dose: 512.0 mg/kg/injection, schedule: Q01DX009 (oral), vehicle: saline", "result": "93 % of control"}, {"measurement": "T/C", "setting": "T/C endpoint: mean survival time, dose: 512.0 mg/kg/injection, schedule: Q04DX003 (ip), vehicle: saline", "result": "86 % of control [9 of 10 alive]"}, {"measurement": "survivor count", "setting": "T/C endpoint: mean survival time, dose: 512.0 mg/kg/injection, schedule: Q04DX003 (iv), vehicle: saline", "result": "0 of 10"}, {"measurement": "T/C", "setting": "T/C endpoint: mean survival time, dose: 512.0 mg/kg/injection, schedule: Q08DX002 (ip), vehicle: saline", "result": "197 % of control [8 of 10 alive]"}, {"measurement": "T/C", "setting": "T/C endpoint: mean survival time, dose: 512.0 mg/kg/injection, schedule: Q## X002 (ip), vehicle: saline", "result": "132 % of control"}, {"measurement": "T/C", "setting": "T/C endpoint: mean survival time, dose: 512.0 mg/kg/injection, schedule: Q## X003 (ip), vehicle: saline", "result": "87 % of control"}, {"measurement": "T/C", "setting": "T/C endpoint: mean survival time, dose: 512.0 mg/kg/injection, schedule: Q## X008 (ip), vehicle: saline", "result": "215 % of control"}, {"measurement": "T/C", "setting": "T/C endpoint: mean survival time, dose: 512.0 mg/kg/injection, schedule: Q## X016 (ip), vehicle: saline", "result": "176 % of control"}, {"measurement": "T/C", "setting": "T/C endpoint: mean survival time, dose: 512.0 mg/kg/injection, schedule: Q## X024 (ip), vehicle: saline", "result": "121 % of control"}, {"measurement": "T/C", "setting": "T/C endpoint: mean survival time, dose: 600.0 mg/kg/injection, schedule: Q01DX001 (ip), vehicle: saline", "result": "148 and 247 % of control"}, {"measurement": "survivor count", "setting": "T/C endpoint: mean survival time, dose: 750.0 mg/kg/injection, schedule: Q01DX001 (ip), vehicle: clinical formulation", "result": "2 of 6"}, {"measurement": "survivor count", "setting": "T/C endpoint: mean survival time, dose: 750.0 mg/kg/injection, schedule: Q01DX001 (ip), vehicle: saline", "result": "3 of 6"}, {"measurement": "T/C", "setting": "T/C endpoint: mean survival time, dose: 900.0 mg/kg/injection, schedule: Q01DX001 (ip), vehicle: saline", "result": "225 % of control"}, {"measurement": "survivor count", "setting": "T/C endpoint: mean survival time, dose: 1024.0 mg/kg/injection, schedule: Q01DX001 (ip), vehicle: saline", "result": "1 of 10 and 2 of 10"}, {"measurement": "survivor count", "setting": "T/C endpoint: mean survival time, dose: 1024.0 mg/kg/injection, schedule: Q01DX001 (iv), vehicle: saline", "result": "0 of 10"}, {"measurement": "T/C", "setting": "T/C endpoint: mean survival time, dose: 1024.0 mg/kg/injection, schedule: Q01DX001 (oral), vehicle: saline", "result": "114 % of control"}, {"measurement": "survivor count", "setting": "T/C endpoint: mean survival time, dose: 1024.0 mg/kg/injection, schedule: Q01DX001 (sc), vehicle: saline", "result": "4 of 10"}, {"measurement": "survivor count", "setting": "T/C endpoint: mean survival time, dose: 1024.0 mg/kg/injection, schedule: Q08DX002 (ip), vehicle: saline", "result": "3 of 10"}, {"measurement": "survivor count", "setting": "T/C endpoint: mean survival time, dose: 1024.0 mg/kg/injection, schedule: Q## X002 (ip), vehicle: saline", "result": "3 of 10"}, {"measurement": "survivor count", "setting": "T/C endpoint: mean survival time, dose: 1024.0 mg/kg/injection, schedule: Q## X008 (ip), vehicle: saline", "result": "3 of 10"}, {"measurement": "survivor count", "setting": "T/C endpoint: mean survival time, dose: 1024.0 mg/kg/injection, schedule: Q## X016 (ip), vehicle: saline", "result": "6 of 10"}, {"measurement": "T/C", "setting": "T/C endpoint: mean survival time, dose: 1350.0 mg/kg/injection, schedule: Q01DX001 (ip), vehicle: saline", "result": "95 % of control"}, {"measurement": "survivor count", "setting": "T/C endpoint: mean survival time, dose: 2048.0 mg/kg/injection, schedule: Q01DX001 (oral), vehicle: saline", "result": "6 of 10"}, {"measurement": "T/C", "setting": "T/C endpoint: median survival time, dose: 108.0 mg/kg/injection, schedule: Q04DX003 (ip), vehicle: steroid suspending solution", "result": "150 % of control"}, {"measurement": "T/C", "setting": "T/C endpoint: median survival time, dose: 108.0 mg/kg/injection, schedule: Q04DX003 (sc), vehicle: steroid suspending solution", "result": "100 % of control"}, {"measurement": "T/C", "setting": "T/C endpoint: median survival time, dose: 180.0 mg/kg/injection, schedule: Q01DX001 (ip), vehicle: steroid suspending solution", "result": "140 % of control"}, {"measurement": "T/C", "setting": "T/C endpoint: median survival time, dose: 180.0 mg/kg/injection, schedule: Q01DX001 (sc), vehicle: steroid suspending solution", "result": "110 % of control"}, {"measurement": "T/C", "setting": "T/C endpoint: median survival time, dose: 180.0 mg/kg/injection, schedule: Q04DX003 (ip), vehicle: steroid suspending solution", "result": "130 % of control"}, {"measurement": "T/C", "setting": "T/C endpoint: median survival time, dose: 180.0 mg/kg/injection, schedule: Q04DX003 (sc), vehicle: steroid suspending solution", "result": "110 % of control"}, {"measurement": "T/C", "setting": "T/C endpoint: median survival time, dose: 300.0 mg/kg/injection, schedule: Q01DX001 (ip), vehicle: steroid suspending solution", "result": "145 % of control"}, {"measurement": "T/C", "setting": "T/C endpoint: median survival time, dose: 300.0 mg/kg/injection, schedule: Q01DX001 (sc), vehicle: steroid suspending solution", "result": "110 % of control"}, {"measurement": "T/C", "setting": "T/C endpoint: median survival time, dose: 300.0 mg/kg/injection, schedule: Q04DX003 (ip), vehicle: steroid suspending solution", "result": "185 % of control"}, {"measurement": "T/C", "setting": "T/C endpoint: median survival time, dose: 300.0 mg/kg/injection, schedule: Q04DX003 (sc), vehicle: steroid suspending solution", "result": "130 % of control"}, {"measurement": "T/C", "setting": "T/C endpoint: median survival time, dose: 500.0 mg/kg/injection, schedule: Q01DX001 (ip), vehicle: steroid suspending solution", "result": "160 % of control"}, {"measurement": "survivor count", "setting": "T/C endpoint: median survival time, dose: 500.0 mg/kg/injection, schedule: Q01DX001 (sc), vehicle: steroid suspending solution", "result": "4 of 8"}, {"measurement": "survivor count", "setting": "T/C endpoint: median survival time, dose: 500.0 mg/kg/injection, schedule: Q04DX003 (ip), vehicle: steroid suspending solution", "result": "8 of 8"}, {"measurement": "T/C", "setting": "T/C endpoint: median survival time, dose: 500.0 mg/kg/injection, schedule: Q04DX003 (sc), vehicle: steroid suspending solution", "result": "110 % of control [6 of 8 alive]"}, {"measurement": "survivor count", "setting": "T/C endpoint: median survival time, dose: 833.0 mg/kg/injection, schedule: Q01DX001 (ip), vehicle: steroid suspending solution", "result": "7 of 8"}, {"measurement": "survivor count", "setting": "T/C endpoint: median survival time, dose: 833.0 mg/kg/injection, schedule: Q01DX001 (sc), vehicle: steroid suspending solution", "result": "0 of 8"}]}
